For at least one compound, name, drawing or mass did not settle the structure.
Target: TRPM8 (Rattus norvegicus (Rat), UniProt Q8R455)
Experiment: In vivo TRPM8 antagonistic assay in rats (menthol-induced wet-dog shakes)
Details: SD male rats; 3 mg/kg po 1 hour prior to menthol 50 mg/kg ip; WDS counted for 5 min
Procedure: The antagonistic activity of compounds was assessed in the “wet-dog” shakes (WDS) model in rats. […] Pretreatment of the rats with a TRPM8 antagonist prior to menthol administration inhibits the observed shaking behavior.
To assess the ability of a TRPM8 antagonist to prevent menthol induced shaking behavior in Sprague Dawley (SD) male rats, test compounds (3 mg/kg, po, in 0.5% methyl cellulose; N=3-4/group) were administered 1 hour prior to menthol challenge (50 mg/kg, ip, in 10% Macrogol 15 Hydroxystearate/saline). Spontaneous WDS were counted for 5 min post menthol dosing. Inhibition of the spontaneous WDS behavior relative to vehicle pretreatment is expressed as percent inhibition, calculated as follows: % Inhibition=[1−(treatment WDS count/vehicle WDS count)]×100.

By UniProt entry, the sequences of proteins in these tests, tags left out.
UniProt Q8R455, whole entry: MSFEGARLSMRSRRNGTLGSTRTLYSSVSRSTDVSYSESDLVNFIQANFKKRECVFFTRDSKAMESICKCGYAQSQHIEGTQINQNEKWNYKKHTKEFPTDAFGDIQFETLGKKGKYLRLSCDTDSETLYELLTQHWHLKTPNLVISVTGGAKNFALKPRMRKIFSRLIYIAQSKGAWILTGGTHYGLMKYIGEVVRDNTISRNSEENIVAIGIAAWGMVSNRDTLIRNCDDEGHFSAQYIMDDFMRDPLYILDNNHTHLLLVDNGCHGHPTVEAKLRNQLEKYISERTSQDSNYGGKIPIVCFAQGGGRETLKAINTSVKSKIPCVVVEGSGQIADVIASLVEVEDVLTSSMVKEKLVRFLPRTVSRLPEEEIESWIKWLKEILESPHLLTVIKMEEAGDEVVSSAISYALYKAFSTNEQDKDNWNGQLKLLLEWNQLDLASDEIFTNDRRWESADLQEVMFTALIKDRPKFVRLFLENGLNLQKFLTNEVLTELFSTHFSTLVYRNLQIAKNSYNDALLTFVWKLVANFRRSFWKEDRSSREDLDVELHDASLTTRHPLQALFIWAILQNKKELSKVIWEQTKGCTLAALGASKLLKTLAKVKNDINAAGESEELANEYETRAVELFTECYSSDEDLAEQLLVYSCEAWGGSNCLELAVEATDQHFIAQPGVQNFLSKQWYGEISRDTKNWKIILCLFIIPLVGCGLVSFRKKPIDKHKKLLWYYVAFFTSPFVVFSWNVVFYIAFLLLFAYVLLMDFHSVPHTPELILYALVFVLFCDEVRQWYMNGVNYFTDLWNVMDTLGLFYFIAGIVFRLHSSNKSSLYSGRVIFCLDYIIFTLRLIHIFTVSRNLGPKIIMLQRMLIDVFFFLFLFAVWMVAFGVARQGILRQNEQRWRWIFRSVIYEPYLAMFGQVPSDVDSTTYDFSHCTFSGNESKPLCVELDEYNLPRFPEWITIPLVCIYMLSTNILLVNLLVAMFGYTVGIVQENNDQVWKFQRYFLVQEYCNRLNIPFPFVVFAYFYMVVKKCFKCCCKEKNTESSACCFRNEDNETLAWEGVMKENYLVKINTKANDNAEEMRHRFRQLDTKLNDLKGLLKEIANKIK

SMILES: O=C(O)c1ccc(S(=O)(=O)N(Cc2cc3c(F)cc(F)cc3s2)c2ncc3ccccc3c2C2CC2)cc1 [Example 184]
- TRPM8 antagonistic assay (% Inhibition @ 3 mg/kg): 67.0%

Source: US8987445B2, “Sulfonamide compounds having TRPM8 antagonistic activity” (Mitsubishi Tanabe Pharma Corporation, priority 2011, dated 2015)
